Some of the results follow. Most values lie at the level of the controls, where differences are scatter.

The chains behind the UniProt entries cited, without tags or fusion partners. Where a name states a change or a piece, a line headed by the entry shows the natural chain unless it says otherwise.
UniProt Q8WWM7: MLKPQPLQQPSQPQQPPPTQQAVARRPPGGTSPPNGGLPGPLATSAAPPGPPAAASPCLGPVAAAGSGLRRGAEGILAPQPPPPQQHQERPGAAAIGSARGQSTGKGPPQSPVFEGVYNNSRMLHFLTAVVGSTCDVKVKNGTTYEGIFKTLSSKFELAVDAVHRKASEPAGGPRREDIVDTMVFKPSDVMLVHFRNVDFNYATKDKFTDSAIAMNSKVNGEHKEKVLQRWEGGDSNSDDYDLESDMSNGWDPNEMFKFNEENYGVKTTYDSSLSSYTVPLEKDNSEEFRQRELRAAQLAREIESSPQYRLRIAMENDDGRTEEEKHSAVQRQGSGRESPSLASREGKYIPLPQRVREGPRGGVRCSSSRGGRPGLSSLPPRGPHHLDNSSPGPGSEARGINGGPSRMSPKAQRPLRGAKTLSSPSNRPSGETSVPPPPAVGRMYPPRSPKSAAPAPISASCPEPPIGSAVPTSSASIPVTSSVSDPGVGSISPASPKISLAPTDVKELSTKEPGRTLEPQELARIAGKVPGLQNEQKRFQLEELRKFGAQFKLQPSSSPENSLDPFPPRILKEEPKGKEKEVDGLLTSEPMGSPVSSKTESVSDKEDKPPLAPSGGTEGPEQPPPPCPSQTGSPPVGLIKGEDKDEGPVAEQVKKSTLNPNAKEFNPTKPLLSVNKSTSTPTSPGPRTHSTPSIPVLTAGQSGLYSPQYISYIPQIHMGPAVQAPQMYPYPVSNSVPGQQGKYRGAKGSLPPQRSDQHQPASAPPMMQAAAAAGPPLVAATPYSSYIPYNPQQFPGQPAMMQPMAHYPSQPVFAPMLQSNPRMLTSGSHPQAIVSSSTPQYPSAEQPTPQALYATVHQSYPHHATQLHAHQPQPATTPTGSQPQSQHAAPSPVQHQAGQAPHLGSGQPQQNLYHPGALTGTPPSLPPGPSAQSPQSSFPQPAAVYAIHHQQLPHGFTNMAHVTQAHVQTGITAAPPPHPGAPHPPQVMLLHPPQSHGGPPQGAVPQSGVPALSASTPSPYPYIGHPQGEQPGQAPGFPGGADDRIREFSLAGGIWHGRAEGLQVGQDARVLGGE
UniProt Q8WUX9: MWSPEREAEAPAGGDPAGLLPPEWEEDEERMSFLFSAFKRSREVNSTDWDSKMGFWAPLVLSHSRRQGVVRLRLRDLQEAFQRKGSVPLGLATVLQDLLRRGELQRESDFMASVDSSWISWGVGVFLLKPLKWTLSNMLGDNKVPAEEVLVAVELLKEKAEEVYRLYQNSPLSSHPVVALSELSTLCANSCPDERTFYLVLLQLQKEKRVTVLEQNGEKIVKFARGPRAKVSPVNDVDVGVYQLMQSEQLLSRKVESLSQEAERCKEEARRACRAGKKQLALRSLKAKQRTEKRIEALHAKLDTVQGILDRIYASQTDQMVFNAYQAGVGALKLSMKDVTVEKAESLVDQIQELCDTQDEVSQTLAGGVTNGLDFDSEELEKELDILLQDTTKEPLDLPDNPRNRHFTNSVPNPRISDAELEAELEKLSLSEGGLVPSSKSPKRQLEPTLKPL
UniProt Q8TC05: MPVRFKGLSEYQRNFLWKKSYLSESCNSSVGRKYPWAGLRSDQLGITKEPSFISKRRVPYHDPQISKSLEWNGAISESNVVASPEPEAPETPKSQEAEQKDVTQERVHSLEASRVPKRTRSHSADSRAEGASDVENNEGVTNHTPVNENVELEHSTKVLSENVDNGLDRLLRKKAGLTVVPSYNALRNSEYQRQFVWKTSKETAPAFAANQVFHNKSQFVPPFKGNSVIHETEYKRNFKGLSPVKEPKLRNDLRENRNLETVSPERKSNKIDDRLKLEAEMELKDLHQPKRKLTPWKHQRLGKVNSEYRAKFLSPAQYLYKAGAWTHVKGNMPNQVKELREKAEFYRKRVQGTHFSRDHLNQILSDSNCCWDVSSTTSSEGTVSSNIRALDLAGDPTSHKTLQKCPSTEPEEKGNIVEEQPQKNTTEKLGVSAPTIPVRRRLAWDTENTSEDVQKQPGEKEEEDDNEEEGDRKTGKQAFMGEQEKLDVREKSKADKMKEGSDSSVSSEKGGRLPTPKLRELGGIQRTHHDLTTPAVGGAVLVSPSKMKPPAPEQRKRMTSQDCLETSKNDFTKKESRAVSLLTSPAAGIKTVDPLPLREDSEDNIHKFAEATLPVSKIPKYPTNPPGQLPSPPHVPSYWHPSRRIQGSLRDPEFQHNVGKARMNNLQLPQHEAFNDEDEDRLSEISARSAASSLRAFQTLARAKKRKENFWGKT
UniProt Q92667: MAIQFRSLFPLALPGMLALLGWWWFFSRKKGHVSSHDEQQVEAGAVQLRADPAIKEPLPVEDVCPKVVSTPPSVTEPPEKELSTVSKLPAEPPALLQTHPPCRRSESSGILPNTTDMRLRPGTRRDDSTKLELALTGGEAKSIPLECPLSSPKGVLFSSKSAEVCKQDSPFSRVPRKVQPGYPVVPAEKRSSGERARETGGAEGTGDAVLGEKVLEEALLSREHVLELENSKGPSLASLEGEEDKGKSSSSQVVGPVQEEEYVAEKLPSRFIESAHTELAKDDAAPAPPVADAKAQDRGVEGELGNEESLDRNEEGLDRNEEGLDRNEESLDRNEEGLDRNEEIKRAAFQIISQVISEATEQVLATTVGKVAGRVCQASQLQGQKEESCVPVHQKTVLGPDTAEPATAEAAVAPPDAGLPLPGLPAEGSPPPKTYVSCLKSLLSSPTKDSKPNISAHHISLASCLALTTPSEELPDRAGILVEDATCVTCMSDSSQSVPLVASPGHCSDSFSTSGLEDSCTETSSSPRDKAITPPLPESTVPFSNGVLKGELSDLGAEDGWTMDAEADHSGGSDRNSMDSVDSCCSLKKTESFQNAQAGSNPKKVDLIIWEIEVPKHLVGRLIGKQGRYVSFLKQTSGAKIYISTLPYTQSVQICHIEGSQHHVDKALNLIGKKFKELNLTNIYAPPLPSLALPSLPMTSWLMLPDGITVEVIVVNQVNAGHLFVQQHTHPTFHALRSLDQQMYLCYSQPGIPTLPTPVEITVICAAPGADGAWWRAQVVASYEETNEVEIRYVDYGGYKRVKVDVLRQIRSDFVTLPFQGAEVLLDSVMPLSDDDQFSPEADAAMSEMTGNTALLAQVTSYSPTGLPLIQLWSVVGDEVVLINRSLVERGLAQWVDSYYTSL
UniProt Q92664: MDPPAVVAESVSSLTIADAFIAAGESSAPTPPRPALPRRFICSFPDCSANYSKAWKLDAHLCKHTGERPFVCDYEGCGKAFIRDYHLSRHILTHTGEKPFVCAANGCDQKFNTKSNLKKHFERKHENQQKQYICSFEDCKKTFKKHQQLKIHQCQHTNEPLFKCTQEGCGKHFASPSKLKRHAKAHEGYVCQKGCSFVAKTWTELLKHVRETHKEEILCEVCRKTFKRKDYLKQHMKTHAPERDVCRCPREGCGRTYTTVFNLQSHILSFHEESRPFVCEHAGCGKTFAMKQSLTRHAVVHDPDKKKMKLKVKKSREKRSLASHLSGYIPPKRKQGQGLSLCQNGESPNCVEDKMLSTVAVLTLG
UniProt Q8WTV1: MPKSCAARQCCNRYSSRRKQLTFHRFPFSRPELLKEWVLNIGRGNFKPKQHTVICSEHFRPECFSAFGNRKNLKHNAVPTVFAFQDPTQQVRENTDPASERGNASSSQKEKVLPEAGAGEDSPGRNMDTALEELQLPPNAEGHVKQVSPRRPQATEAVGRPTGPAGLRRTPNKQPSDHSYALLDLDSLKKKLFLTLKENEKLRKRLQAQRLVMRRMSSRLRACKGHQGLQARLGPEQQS
UniProt Q8WUQ7: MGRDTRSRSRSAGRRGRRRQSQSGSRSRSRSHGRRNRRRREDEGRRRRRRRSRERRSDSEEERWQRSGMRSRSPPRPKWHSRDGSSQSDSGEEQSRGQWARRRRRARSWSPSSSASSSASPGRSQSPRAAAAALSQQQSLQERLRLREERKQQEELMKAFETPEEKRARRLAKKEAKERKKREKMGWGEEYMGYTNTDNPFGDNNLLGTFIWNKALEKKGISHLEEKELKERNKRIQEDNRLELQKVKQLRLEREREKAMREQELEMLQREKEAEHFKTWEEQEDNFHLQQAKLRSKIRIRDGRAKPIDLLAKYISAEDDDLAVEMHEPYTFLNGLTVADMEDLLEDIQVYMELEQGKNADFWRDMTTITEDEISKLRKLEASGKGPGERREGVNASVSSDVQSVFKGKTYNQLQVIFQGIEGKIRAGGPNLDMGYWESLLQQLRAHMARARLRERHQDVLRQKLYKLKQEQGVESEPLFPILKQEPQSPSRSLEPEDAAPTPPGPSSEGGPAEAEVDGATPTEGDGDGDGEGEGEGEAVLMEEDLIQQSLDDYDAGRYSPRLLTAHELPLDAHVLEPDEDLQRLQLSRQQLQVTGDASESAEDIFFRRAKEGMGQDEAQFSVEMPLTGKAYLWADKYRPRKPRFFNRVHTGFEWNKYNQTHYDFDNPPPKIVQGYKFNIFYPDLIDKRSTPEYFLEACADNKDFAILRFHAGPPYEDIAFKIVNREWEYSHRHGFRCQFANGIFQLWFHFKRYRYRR
UniProt Q8TF46, whole entry: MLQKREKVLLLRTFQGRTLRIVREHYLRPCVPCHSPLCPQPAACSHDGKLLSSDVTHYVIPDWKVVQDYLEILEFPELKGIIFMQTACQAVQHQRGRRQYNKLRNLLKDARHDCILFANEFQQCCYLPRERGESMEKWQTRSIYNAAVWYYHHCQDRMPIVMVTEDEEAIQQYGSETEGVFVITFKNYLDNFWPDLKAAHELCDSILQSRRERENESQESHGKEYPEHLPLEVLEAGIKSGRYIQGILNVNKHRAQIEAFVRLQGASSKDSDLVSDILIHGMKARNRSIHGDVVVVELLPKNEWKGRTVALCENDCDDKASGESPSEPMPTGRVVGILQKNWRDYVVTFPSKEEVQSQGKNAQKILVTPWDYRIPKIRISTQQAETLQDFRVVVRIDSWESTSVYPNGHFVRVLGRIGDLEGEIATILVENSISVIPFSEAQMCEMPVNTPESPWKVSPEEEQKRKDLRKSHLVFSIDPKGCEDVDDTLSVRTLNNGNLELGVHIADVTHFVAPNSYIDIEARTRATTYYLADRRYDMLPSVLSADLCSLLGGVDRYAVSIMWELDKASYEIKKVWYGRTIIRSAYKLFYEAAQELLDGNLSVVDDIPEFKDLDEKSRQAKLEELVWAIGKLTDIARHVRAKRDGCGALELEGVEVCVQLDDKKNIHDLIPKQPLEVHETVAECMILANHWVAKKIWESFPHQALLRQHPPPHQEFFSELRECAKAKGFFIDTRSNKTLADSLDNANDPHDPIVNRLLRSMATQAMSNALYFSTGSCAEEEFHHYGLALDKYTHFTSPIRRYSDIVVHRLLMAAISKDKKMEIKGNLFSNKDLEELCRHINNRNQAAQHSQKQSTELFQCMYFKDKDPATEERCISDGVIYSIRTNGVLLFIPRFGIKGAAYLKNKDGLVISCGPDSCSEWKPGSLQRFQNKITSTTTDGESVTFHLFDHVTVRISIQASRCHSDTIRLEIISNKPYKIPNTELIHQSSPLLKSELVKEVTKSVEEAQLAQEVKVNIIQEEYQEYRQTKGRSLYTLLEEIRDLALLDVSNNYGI
UniProt Q8WYQ9: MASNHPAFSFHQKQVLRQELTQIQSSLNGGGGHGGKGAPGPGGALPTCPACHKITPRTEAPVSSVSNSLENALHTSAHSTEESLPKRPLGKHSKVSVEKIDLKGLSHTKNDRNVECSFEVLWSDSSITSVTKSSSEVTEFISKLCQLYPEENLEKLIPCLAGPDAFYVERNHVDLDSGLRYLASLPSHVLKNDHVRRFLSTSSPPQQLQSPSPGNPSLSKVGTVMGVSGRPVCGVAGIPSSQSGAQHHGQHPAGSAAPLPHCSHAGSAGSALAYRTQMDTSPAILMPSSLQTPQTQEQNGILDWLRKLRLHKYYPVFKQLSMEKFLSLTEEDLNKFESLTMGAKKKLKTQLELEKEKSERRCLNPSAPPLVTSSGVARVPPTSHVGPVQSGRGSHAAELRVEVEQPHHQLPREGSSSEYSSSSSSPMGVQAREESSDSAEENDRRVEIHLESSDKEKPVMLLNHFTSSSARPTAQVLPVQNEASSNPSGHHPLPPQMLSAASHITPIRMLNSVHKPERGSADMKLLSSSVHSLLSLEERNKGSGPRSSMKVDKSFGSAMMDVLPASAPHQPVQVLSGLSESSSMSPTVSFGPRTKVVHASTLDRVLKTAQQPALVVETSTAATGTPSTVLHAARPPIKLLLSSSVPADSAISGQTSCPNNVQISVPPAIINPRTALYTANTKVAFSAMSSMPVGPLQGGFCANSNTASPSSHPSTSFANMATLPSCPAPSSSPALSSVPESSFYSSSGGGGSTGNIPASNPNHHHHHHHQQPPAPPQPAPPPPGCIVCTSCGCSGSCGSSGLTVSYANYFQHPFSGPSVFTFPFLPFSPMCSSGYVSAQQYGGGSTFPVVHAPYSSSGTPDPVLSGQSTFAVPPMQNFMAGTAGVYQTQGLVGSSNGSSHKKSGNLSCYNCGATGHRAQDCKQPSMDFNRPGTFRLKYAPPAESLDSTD

Results on 37 targets are retold here after the supplement of paper PMC12819154, “High-throughput peptide-centric local stability assay extends protein–ligand identification to membrane proteins, tissues and bacteria” (Nature Structural & Molecular Biology, 2025).

Compound in this experiment: CN[C@@H]1C[C@H]2O[C@@](C)([C@@H]1OC)n1c3ccccc3c3c4c(c5c6ccccc6n2c5c31)C(=O)NC4 [staurosporine]
Kind of experiment: log2 fold change of tryptic peptide abundance, ligand vs vehicle (limited proteolysis) (log2 ratio); higher = more trypsin-susceptible (destabilized). The conditions noted are these: ligand concentration: 20 uM; sample: K562 cleared lysate; digestion: 4 min, 22 C (HT-PELSA RT4min, Orbitrap Astral).
As to “RTN4IP1 (peptide sequence: RDPLHVK, peptide start residue: 103) (UniProt Q8WWV3)”, the log2 fold change was determined as 0.148.
The same measure for “TTN (peptide sequence: PEVINITR, peptide start residue: 21207) (UniProt Q8WZ42)”: -0.313.
The same measure for “RTF1 (peptide sequence: LTQIQESQVTSHNKER, peptide start residue: 252) (UniProt Q92541)”: 0.284; for “ARHGEF40 (peptide sequence: EAVLAALALR, peptide start residue: 900) (UniProt Q8TER5)”: 0.435.
The same measure for “LPIN2 (peptide sequence: SESHMEWTWGGFPESTK, peptide start residue: 258) (UniProt Q92539)”: -0.524; for “ATXN2L (peptide sequence: RFQLEELRK, peptide start residue: 539) (UniProt Q8WWM7)”: 0.546; for “CHMP7 (peptide sequence: MSFLFSAFKR, peptide start residue: 31) (UniProt Q8WUX9)”: -0.289.
On to “PARD3 (peptide sequence: SVNSAGLHTVQR, peptide start residue: 393) (UniProt Q8TEW0)”, for which the log2 fold change worked out at 0.474.
The same measure for “LZIC (peptide sequence: DLYTQQKVEILTALRK, peptide start residue: 125) (UniProt Q8WZA0)”: 0.0926; for “MDM1 (peptide sequence: LGVSAPTIPVR, peptide start residue: 429) (UniProt Q8TC05)”: 0.477.
The same measure for “TGFBRAP1 (peptide sequence: LQGAGLPMESAILHGK, peptide start residue: 660) (UniProt Q8WUH2)”: -0.384.
Consider “DDX1 (peptide sequence: DNTRPGANSPEMWSEAIK, peptide start residue: 473) (UniProt Q92499)”, for which the log2 fold change was -0.531.
The same measure for “ATRIP (peptide sequence: VMEEEVLIK, peptide start residue: 130) (UniProt Q8WXE1)”: 0.196; for “AKAP1 (peptide sequence: FIESAHTELAK, peptide start residue: 271) (UniProt Q92667)”: -0.782; for “GOLGA1 (peptide sequence: GPLQAEALSVNESHVTSR, peptide start residue: 574) (UniProt Q92805)”: -0.779.
The same measure for “GTF3A (peptide sequence: SLASHLSGYIPPK, peptide start residue: 320) (UniProt Q92664)”: 0.182; for “UniProt Q8TF61 (peptide sequence: EKEELEER, peptide start residue: 261)”: 0.192.
Regarding “THAP3 (peptide sequence: RPQATEAVGRPTGPAGLR, peptide start residue: 151) (UniProt Q8WTV1)”, the log2 fold change came out at 0.241.
For “RGP1 (peptide sequence: VNSPITLLRVPLR, peptide start residue: 145) (UniProt Q92546)” the value was -0.296; for “UniProt Q8WUQ7 (peptide sequence: KQQEELMK, peptide start residue: 151)”, 0.419; for “UniProt Q92800 (peptide sequence: HAIEGNKK, peptide start residue: 218)”, 0.576.
Take “GATAD2B (peptide sequence: KDLANLEVPHELPTK, peptide start residue: 52) (UniProt Q8WXI9)”: the log2 fold change worked out at 0.828.
The same measure for “CHD5 (peptide sequence: ESLAGNKPANAVLHK, peptide start residue: 1849) (UniProt Q8TDI0)”: 0.152; for “UniProt Q8TF01 (peptide sequence: EADGDVVNEK, peptide start residue: 473)”: -0.18; for “DIS3L (peptide sequence: YIQGILNVNK, peptide start residue: 243) (UniProt Q8TF46)”: -0.883.
The same measure for “GGH (peptide sequence: NLDGISHAPNAVK, peptide start residue: 254) (UniProt Q92820)”: -0.332; for “UniProt Q8TCG1 (peptide sequence: SIAQLIEKEEQRK, peptide start residue: 776)”: 0.429.
The same measure for “UniProt Q8WXH5 (peptide sequence: PEGTFLLR, peptide start residue: 399)”: -0.054.
For the target “SEC14L1 (peptide sequence: EIMCQSLTWR, peptide start residue: 296) (UniProt Q92503)”, the log2 fold change worked out at 0.479.
For “CASKIN2 (peptide sequence: SRGSGHSQEQPAPQPSGGDPSPPQER, peptide start residue: 705) (UniProt Q8WXE0)” the value was -0.918.
For “UniProt Q8TCP9 (peptide sequence: TIPLSDNTISR, peptide start residue: 107)” the value was -0.117.
With “UniProt Q8TF30 (peptide sequence: FAVTCHDR, peptide start residue: 41)”, the log2 fold change was 0.384.
As to “HDAC2 (peptide sequence: TDVKEEDKSK, peptide start residue: 459) (UniProt Q92769)”, the log2 fold change came to 0.6.
The same measure for “DGCR8 (peptide sequence: SVIELQQYAKK, peptide start residue: 714) (UniProt Q8WYQ5)”: -0.274; for “UniProt Q8WYQ9 (peptide sequence: VVHASTLDR, peptide start residue: 596)”: 0.64; for “RNF138 (peptide sequence: TTACQHVFCRK, peptide start residue: 31) (UniProt Q8WVD3)”: -0.19.
Consider “UniProt Q8TBZ0 (peptide sequence: DKERQPFLVK, peptide start residue: 394)”, for which the log2 fold change is 0.0784.
